Measurements as given in the supplement of paper PMC10849652.
The list shows a part of the results. Residues, ends and D or L forms follow the SMILES beside them. *: point of attachment. Cbz = O=C(OCc1ccccc1)*

Sequences of proteins named here, by UniProt entry; tags and fusion partners are left off. A change or cut given only in a name is not applied to a line headed by its entry.
UniProt Q15291, whole entry, looked up: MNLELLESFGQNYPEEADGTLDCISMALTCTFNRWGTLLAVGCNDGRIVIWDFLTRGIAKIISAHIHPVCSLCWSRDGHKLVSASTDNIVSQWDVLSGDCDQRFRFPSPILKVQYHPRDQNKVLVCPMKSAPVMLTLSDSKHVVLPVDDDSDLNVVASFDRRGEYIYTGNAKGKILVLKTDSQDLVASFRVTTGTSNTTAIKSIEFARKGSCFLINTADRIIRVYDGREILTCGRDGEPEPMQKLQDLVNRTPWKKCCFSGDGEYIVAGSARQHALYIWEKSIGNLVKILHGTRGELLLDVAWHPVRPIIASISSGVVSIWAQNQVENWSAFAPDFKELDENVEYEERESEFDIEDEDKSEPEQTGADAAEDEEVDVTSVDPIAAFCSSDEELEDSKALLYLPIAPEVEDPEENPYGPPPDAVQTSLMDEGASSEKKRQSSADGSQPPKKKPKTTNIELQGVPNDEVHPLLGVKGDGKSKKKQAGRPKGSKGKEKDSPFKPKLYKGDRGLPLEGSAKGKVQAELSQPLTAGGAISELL
UniProt Q09028, whole entry, looked up: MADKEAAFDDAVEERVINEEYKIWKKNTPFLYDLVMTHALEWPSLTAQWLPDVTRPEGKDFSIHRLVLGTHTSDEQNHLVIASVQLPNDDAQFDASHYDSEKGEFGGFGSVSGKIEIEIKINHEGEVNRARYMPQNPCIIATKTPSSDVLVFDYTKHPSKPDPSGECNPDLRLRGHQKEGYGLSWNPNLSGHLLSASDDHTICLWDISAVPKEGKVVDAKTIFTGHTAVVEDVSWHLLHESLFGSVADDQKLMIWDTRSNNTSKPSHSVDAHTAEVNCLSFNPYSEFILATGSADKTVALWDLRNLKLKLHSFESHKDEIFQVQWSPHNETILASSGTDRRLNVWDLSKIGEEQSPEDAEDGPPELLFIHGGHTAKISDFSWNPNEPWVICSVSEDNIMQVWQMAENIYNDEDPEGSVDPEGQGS
UniProt Q9UI14, whole entry, looked up: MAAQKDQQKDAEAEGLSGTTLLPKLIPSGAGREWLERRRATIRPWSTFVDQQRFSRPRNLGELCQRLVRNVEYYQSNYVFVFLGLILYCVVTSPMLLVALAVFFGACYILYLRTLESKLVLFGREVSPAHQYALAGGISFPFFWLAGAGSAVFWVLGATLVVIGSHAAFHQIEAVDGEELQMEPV
UniProt Q9H0H5: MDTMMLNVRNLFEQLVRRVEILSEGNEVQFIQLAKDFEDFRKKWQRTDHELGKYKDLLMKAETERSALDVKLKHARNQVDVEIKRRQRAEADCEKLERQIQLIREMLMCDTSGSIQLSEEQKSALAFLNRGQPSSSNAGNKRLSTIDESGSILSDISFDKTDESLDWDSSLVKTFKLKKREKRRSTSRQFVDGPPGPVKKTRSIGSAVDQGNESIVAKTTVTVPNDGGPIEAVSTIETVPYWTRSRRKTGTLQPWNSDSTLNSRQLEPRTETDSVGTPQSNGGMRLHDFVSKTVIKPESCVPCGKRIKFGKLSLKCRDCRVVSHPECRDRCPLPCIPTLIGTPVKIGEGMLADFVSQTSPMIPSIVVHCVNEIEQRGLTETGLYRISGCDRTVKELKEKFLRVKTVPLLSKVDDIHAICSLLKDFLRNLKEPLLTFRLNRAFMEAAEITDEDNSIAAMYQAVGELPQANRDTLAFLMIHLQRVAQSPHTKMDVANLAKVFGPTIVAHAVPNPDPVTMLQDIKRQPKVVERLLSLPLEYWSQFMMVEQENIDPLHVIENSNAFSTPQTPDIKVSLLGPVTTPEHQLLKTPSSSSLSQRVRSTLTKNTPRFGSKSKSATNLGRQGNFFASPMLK
UniProt P78406: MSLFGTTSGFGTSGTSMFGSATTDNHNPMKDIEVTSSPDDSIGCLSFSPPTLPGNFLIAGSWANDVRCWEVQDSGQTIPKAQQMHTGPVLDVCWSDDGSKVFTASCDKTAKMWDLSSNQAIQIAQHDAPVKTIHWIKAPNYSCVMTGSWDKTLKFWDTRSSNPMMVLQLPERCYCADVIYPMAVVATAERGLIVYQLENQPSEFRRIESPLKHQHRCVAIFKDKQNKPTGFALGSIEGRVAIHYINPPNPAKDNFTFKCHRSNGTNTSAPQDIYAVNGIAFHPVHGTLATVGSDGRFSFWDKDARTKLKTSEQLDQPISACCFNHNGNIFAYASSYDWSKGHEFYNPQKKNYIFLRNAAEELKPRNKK
UniProt P61224: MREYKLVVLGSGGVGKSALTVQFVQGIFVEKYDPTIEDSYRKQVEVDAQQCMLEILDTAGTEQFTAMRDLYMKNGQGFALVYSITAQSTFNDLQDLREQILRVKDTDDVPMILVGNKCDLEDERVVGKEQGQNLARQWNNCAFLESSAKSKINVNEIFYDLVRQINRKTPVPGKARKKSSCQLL
UniProt P61026: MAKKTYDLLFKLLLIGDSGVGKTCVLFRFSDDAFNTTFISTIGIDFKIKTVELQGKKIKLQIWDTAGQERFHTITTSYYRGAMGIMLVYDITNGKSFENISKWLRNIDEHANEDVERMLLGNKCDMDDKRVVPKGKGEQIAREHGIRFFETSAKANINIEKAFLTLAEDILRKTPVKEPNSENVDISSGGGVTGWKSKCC
UniProt P43487, whole entry, looked up: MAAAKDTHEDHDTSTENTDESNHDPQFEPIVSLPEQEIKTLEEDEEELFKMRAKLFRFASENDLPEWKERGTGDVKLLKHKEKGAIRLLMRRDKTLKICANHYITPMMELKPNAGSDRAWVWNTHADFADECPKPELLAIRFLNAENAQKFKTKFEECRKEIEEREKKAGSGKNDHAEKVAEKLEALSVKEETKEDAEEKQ
UniProt Q9BTL3: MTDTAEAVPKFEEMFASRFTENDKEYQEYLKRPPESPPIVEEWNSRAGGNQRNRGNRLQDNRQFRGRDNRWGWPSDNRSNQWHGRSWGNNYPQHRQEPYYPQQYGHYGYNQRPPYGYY
UniProt Q9H6Z4: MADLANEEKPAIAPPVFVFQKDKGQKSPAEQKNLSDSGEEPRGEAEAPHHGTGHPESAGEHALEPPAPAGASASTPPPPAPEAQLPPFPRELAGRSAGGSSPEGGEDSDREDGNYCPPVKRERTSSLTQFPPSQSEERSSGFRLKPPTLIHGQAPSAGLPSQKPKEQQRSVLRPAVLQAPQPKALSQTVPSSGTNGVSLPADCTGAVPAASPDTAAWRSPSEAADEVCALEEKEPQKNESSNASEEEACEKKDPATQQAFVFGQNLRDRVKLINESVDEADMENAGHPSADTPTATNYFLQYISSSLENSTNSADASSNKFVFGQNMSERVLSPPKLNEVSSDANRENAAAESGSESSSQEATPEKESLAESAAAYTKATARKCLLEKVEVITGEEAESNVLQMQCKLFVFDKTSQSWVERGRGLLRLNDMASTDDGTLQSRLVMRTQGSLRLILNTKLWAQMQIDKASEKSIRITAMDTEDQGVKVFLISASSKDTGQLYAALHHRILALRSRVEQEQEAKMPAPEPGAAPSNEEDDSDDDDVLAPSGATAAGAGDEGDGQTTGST
UniProt Q96QF0: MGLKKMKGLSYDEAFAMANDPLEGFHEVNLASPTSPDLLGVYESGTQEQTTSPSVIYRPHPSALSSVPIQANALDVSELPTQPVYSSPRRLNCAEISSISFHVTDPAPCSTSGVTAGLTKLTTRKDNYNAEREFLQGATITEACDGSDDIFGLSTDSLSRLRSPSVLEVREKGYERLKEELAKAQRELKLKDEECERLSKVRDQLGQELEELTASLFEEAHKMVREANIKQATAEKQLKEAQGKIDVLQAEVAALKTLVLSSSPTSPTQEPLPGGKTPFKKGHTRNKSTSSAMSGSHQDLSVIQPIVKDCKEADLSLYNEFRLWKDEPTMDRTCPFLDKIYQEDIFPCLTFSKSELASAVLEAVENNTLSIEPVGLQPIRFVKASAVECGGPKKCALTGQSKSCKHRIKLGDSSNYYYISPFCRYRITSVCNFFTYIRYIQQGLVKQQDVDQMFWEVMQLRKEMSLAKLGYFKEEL
UniProt Q96E17: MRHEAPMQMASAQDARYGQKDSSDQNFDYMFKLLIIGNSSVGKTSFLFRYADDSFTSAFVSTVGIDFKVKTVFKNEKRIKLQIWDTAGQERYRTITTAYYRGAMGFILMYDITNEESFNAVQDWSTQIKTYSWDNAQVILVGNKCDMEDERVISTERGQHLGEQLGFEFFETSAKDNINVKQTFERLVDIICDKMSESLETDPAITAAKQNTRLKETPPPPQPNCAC
UniProt P61006: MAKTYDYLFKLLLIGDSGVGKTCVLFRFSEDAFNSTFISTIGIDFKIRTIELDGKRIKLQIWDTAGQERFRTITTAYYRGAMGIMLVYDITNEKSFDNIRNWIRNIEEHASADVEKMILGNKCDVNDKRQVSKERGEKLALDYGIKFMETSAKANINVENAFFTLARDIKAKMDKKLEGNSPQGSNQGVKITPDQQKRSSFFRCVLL
UniProt Q96S21: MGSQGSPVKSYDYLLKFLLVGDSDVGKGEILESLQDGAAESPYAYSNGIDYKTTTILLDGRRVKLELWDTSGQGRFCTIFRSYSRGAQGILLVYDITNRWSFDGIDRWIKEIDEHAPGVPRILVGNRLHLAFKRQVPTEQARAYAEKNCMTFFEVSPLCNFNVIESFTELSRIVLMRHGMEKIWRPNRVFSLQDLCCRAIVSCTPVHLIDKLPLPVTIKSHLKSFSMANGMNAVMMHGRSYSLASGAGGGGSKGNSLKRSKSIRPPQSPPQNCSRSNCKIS
UniProt P53611: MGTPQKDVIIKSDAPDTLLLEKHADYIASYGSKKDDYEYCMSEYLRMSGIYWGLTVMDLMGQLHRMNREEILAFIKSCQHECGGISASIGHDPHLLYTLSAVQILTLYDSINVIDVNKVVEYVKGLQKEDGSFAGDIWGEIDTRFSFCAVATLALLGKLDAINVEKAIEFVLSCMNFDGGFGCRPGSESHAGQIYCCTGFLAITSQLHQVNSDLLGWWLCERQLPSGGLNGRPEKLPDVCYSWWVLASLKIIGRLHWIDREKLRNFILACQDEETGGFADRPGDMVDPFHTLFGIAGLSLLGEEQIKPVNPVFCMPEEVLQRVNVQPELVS
UniProt Q96S59, whole entry, looked up: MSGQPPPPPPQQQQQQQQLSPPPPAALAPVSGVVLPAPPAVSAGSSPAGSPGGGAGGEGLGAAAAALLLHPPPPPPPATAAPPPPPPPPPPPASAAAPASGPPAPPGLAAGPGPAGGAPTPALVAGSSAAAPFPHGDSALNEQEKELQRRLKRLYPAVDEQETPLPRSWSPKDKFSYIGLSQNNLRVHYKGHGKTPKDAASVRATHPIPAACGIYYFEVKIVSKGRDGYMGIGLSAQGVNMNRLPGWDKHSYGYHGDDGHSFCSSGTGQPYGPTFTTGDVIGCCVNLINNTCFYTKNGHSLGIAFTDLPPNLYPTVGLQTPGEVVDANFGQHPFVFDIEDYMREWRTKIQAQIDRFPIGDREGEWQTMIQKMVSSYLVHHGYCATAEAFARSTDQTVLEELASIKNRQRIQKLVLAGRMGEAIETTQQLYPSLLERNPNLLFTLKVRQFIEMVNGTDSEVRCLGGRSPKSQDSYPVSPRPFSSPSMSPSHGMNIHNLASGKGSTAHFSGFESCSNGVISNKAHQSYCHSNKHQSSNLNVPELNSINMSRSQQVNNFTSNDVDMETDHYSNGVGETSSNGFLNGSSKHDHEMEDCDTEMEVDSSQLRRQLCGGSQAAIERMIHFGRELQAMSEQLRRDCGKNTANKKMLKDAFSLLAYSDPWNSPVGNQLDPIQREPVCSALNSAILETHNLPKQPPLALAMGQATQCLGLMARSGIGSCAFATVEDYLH

Key:
Assay in all cases: log2 fold change, soluble protein after heating vs DMSO (PISA); higher = thermal stabilisation; K562 cells, 10 uM, 30 min; active = over 0.2 and 3.5 SD of the protein, either way, in both replicates (recomputed)
erlotinib = compound: C#Cc1cccc(Nc2ncnc3cc(OCCOC)c(OCCOC)cc23)c1 [erlotinib]
Outline: (§1)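 Quantification of soluble protein used TMTpro 16plex LC-MS/MS, with channel sums equalised. Samples were the supernatant after 21,000xg for 90 min of pooled aliquots from K562 cells (2×10^6 cells/mL) treated with 10 μM compound for 30 min, heated for 3 min over 48°C-58°C, and extracted in PBS with 0.5% NP-40 at 4°C. Values, from duplicates, describe thermal stability against control samples on a log2 fold-change scale.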

[1] = compound: C/C(=N\NC(=O)C1=CC(=CC=C1)S(=O)(=O)N2CCOCC2)/C3=C(C=CC(=C3)Cl)O
Outline: as §1

[2] = compound: C1=CC(=C(C=C1Cl)C2=NC3=NC=CN=C3C(=N2)NC4=CC=NC=C4)F
Outline: as §1

[3] = compound: C1=CC(=CC=C1C2=NC3=C(N2)C=C(C=C3)C(=O)N)OC4=CC=C(C=C4)Cl
Outline: as §1

[4] = compound: C1=CC2=C(C=CC(=C2)/C=C\3/C(=O)NC(=NCC4=CC=CS4)S3)N=C1
Outline: as §1

[5] = compound: C1=CC2=NC=CN=C2C=C1/C=C/3\C(=O)NC(=O)S3
Outline: as §1

[6] = compound: C1=CC=C(C=C1)C2=NC(=C(N2)C3=CC=NC=C3)C4=CC(=C(C=C4)Cl)O
Outline: as §1

[7] = compound: C1=CC=C2C(=C1)C3=NNC4=CC=CC(=C43)C2=O
Outline: as §1

[8] = compound: C1CCN(C1)C(=O)NC2=CC=CC(=C2)NC3=NC=C(C(=N3)NCCC4=CN=CN4)Br
Outline: as §1

[9] = compound: C1CN(CCC1(CC2=CC=C(C=C2)Cl)N)C3=NC=NC4=C3C=CN4
Outline: as §1

IRAK-1-4 Inhibitor I = compound: C1COCCN1CCN2C3=CC=CC=C3N=C2NC(=O)C4=CC(=CC=C4)[N+](=O)[O-] [IRAK-1-4 Inhibitor I]
Outline: as §1

ibrutinib = compound: C=CC(=O)N1CCC[C@@H](n2nc(-c3ccc(Oc4ccccc4)cc3)c3c(N)ncnc32)C1 [ibrutinib]
Outline: as §1

[10] = compound: CC(=O)c1cnc2ccc(-c3cc(Cl)c(O)c(Cl)c3)nc2c1N[C@H]1CC[C@H](CN(C)C)CC1
Outline: as §1

ralimetinib = compound: CC(C)(C)Cn1c(N)nc2ccc(-c3[nH]c(C(C)(C)C)nc3-c3ccc(F)cc3)nc21 [ralimetinib]
Outline: as §1

[11] = compound: CC(C)(O)CC(=O)NCCn1ccc2ncnc(Nc3ccc(Oc4cccc(C(F)(F)F)c4)c(Cl)c3)c21
Outline: as §1

[12] = compound: CC(C)C1=C2N=C(C=C(N2N=C1)NCC3=CC=CC=C3)NCCCCCCN
Outline: as §1

[13] = compound: CC(C)C[C@@H](C=O)NC(=O)[C@H](CC(C)C)NC(=O)[C@H](CC(C)C)NC(=O)OCc1ccccc1
Outline: as §1

pinometostat = compound: CC(C)N(C[C@H]1O[C@@H](n2cnc3c(N)ncnc32)[C@H](O)[C@@H]1O)[C@H]1C[C@@H](CCc2nc3cc(C(C)(C)C)ccc3[nH]2)C1 [pinometostat]
Outline: as §1

[14] = compound: CC1=C(C(CC(=O)N1)C2=CC=C(C=C2)C(F)(F)F)C(=O)NC3=C(C=C4C(=C3)C=NN4)F
Outline: as §1

[15] = compound: CC1=C(C2=C(C=C1)C(=O)C3=CC=CC=C3N2CCCN)C
Outline: as §1

Measured: log2 fold change

RBBP5 (UniProt Q15291)
inactive: erlotinib 0.004 | [1] -0.066 | [2] -0.004 | [3] -0.021 | [4] -0.06 | [5] 0.06 | [6] -0.016 | [7] -0.053 | [8] 0.024 | [9] 0.083 | IRAK-1-4 Inhibitor I 0.025 | ibrutinib 0.016 | [10] 0.05 | ralimetinib -0.012 | [11] 0.032 | [12] 0.102 | [13] 0.013 | pinometostat 0.004 | [14] 0.026 | [15] -0.033

RBBP4 (UniProt Q09028)
inactive: erlotinib -0.01 | [1] -0.011 | [2] -0.006 | [3] 0.001 | [4] 0.037 | [5] -0.011 | [6] 0.058 | [7] -0.023 | [8] -0.005 | [9] 0.013 | IRAK-1-4 Inhibitor I 0.002 | ibrutinib -0.032 | [10] 0.014 | ralimetinib -0.023 | [11] 0.057 | [12] 0.026 | [13] -0.054 | pinometostat -0.07 | [14] -0.003 | [15] 0.012

RABAC1 (UniProt Q9UI14)
inactive: erlotinib 0.021 | [1] 0.043 | [2] 0.099 | [3] -0.007 | [4] -0.053 | [5] 0.002 | [6] -0.022 | [7] -0.128 | [8] 0.061 | [9] 0.208 | IRAK-1-4 Inhibitor I 0.117 | ibrutinib 0.053 | [10] 0.071 | ralimetinib -0.028 | [11] 0.127 | [12] 0.015 | [13] 0.082 | pinometostat 0.051 | [14] 0.055 | [15] -0.058

RACGAP1 (UniProt Q9H0H5)
inactive: erlotinib 0.061 | [1] 0.016 | [2] 0.006 | [3] 0 | [4] 0.057 | [5] -0.071 | [6] 0.018 | [7] 0.032 | [8] -0.014 | [9] -0.179 | IRAK-1-4 Inhibitor I -0.11 | ibrutinib -0.154 | [10] -0.144 | ralimetinib 0.087 | [11] -0.167 | [12] -0.284 | [13] 0.137 | pinometostat 0.165 | [14] -0.107 | [15] 0.036

RAE1 (UniProt P78406)
inactive: erlotinib 0.016 | [1] 0.017 | [2] -0.181 | [3] 0.047 | [4] 0.063 | [5] -0.034 | [6] -0.014 | [7] 0.024 | [8] -0.057 | [9] -0.029 | IRAK-1-4 Inhibitor I -0.086 | ibrutinib -0.077 | [10] -0.05 | ralimetinib 0.085 | [11] 0.022 | [12] -0.144 | [13] -0.006 | pinometostat 0.081 | [14] -0.061 | [15] -0.004

RAP1B (UniProt P61224)
inactive: erlotinib -0.016 | [1] 0.046 | [2] 0.111 | [3] -0.015 | [4] -0.065 | [5] 0.045 | [6] -0.01 | [7] -0.016 | [8] -0.049 | [9] 0.05 | IRAK-1-4 Inhibitor I 0.064 | ibrutinib 0.024 | [10] 0.024 | ralimetinib 0.101 | [11] -0.004 | [12] 0.082 | [13] -0.036 | pinometostat -0.026 | [14] 0.038 | [15] 0.02

RAB10 (UniProt P61026)
inactive: erlotinib -0.019 | [1] 0.002 | [2] 0.015 | [3] -0.007 | [4] 0.001 | [5] -0.002 | [6] 0.002 | [7] -0.023 | [8] 0.016 | [9] 0.08 | IRAK-1-4 Inhibitor I 0.044 | ibrutinib -0.014 | [10] 0.001 | ralimetinib -0.071 | [11] 0.012 | [12] 0.078 | [13] -0.025 | pinometostat -0.03 | [14] -0.015 | [15] 0.003

RANBP1 (UniProt P43487)
inactive: erlotinib -0.04 | [1] 0.026 | [2] 0.062 | [3] -0.024 | [4] -0.053 | [5] 0.077 | [6] -0.048 | [7] -0.044 | [8] 0.011 | [9] 0.038 | IRAK-1-4 Inhibitor I -0.034 | ibrutinib -0.043 | [10] 0.018 | ralimetinib -0.046 | [11] -0.011 | [12] 0.018 | [13] -0.035 | pinometostat -0.107 | [14] 0.063 | [15] -0.072

RAMAC (UniProt Q9BTL3)
inactive: erlotinib 0.069 | [1] -0.058 | [2] -0.01 | [3] -0.045 | [4] 0.01 | [5] 0.016 | [6] -0.016 | [7] -0.046 | [8] 0.012 | [9] 0.002 | IRAK-1-4 Inhibitor I 0.011 | ibrutinib 0.027 | [10] 0.032 | ralimetinib 0.036 | [11] 0.019 | [12] 0.06 | [13] 0.064 | pinometostat 0.015 | [14] -0.034 | [15] 0.138

RANBP3 (UniProt Q9H6Z4)
inactive: erlotinib 0.004 | [1] 0.056 | [2] 0.065 | [3] -0.027 | [4] -0.033 | [5] -0.003 | [6] 0.04 | [7] 0.023 | [8] -0.021 | [9] 0.048 | IRAK-1-4 Inhibitor I 0.005 | ibrutinib 0.026 | [10] 0.011 | ralimetinib -0.014 | [11] -0.019 | [12] 0.04 | [13] 0.012 | pinometostat -0.055 | [14] -0.013 | [15] -0.019

Two neighbouring records from above:
RAP1B (UniProt P61224)
inactive: erlotinib -0.016 | [1] 0.046 | [2] 0.111 | [3] -0.015 | [4] -0.065 | [5] 0.045 | [6] -0.01 | [7] -0.016 | [8] -0.049 | [9] 0.05 | IRAK-1-4 Inhibitor I 0.064 | ibrutinib 0.024 | [10] 0.024 | ralimetinib 0.101 | [11] -0.004 | [12] 0.082 | [13] -0.036 | pinometostat -0.026 | [14] 0.038 | [15] 0.02

RAB10 (UniProt P61026)
inactive: erlotinib -0.019 | [1] 0.002 | [2] 0.015 | [3] -0.007 | [4] 0.001 | [5] -0.002 | [6] 0.002 | [7] -0.023 | [8] 0.016 | [9] 0.08 | IRAK-1-4 Inhibitor I 0.044 | ibrutinib -0.014 | [10] 0.001 | ralimetinib -0.071 | [11] 0.012 | [12] 0.078 | [13] -0.025 | pinometostat -0.03 | [14] -0.015 | [15] 0.003

Carrying on.

RAB3IP (UniProt Q96QF0)
inactive: erlotinib -0.008 | [1] -0.179 | [2] 0.233 | [3] 0.04 | [4] 0.2 | [5] -0.009 | [6] -0.036 | [7] -0.066 | [8] -0.137 | [9] 0.015 | IRAK-1-4 Inhibitor I 0.096 | ibrutinib 0.007 | [10] -0.015 | ralimetinib 0.021 | [11] -0.137 | [12] 0.058 | [13] 0.045 | pinometostat -0.011 | [14] -0.078 | [15] 0.008

RAB3C (UniProt Q96E17)
inactive: erlotinib -0.007 | [1] 0.063 | [2] 0.008 | [3] -0.059 | [4] -0.02 | [5] -0.066 | [6] -0.022 | [7] -0.053 | [8] 0.009 | [9] 0.061 | IRAK-1-4 Inhibitor I 0.072 | ibrutinib 0.051 | [10] 0.01 | ralimetinib -0.048 | [11] 0.052 | [12] 0.032 | [13] -0.008 | pinometostat 0.014 | [14] 0.088 | [15] -0.047

RAB8A (UniProt P61006)
inactive: erlotinib -0.014 | [1] -0.007 | [2] 0.042 | [3] -0.01 | [4] 0.061 | [5] -0.077 | [6] -0.001 | [7] 0.009 | [8] -0.024 | [9] 0.062 | IRAK-1-4 Inhibitor I 0.123 | ibrutinib 0.046 | [10] -0.011 | ralimetinib -0.109 | [11] -0.032 | [12] 0.055 | [13] 0.068 | pinometostat -0.005 | [14] 0.019 | [15] 0.089

RAB40C (UniProt Q96S21)
inactive: erlotinib -0.174 | [1] -0.079 | [2] 0 | [3] 0.286 | [4] -0.033 | [5] -0.027 | [6] 0.04 | [7] 0.06 | [8] -0.259 | [9] 0.087 | IRAK-1-4 Inhibitor I 0.04 | ibrutinib 0.273 | [10] 0.177 | ralimetinib -0.074 | [11] -0.081 | [12] -0.084 | [13] 0.003 | pinometostat -0.035 | [14] 0.064 | [15] 0.077

RABGGTB (UniProt P53611)
inactive: erlotinib -0.039 | [1] -0.023 | [2] 0.103 | [3] 0.072 | [4] 0.006 | [5] 0.041 | [6] 0.054 | [7] 0.047 | [8] -0.086 | [9] 0.133 | IRAK-1-4 Inhibitor I 0.032 | ibrutinib -0.019 | [10] -0.028 | ralimetinib -0.038 | [11] -0.035 | [12] 0.028 | [13] 0.035 | pinometostat -0.019 | [14] 0.004 | [15] -0.012

RANBP9 (UniProt Q96S59)
inactive: erlotinib -0.054 | [1] 0.017 | [2] -0.006 | [3] 0.01 | [4] -0.037 | [5] 0.011 | [6] 0.026 | [7] 0.007 | [8] -0.003 | [9] 0.017 | IRAK-1-4 Inhibitor I 0.003 | ibrutinib -0.026 | [10] 0.052 | ralimetinib 0.038 | [11] 0.011 | [12] -0.032 | [13] 0.012 | pinometostat 0.011 | [14] 0.023 | [15] -0.086
